Results are given in words; binding and its absence hold for the method and conditions named. In cells and extracts the contact can be indirect. Here binding means that the protein was enriched with, or labelled near, the bait; the list need not be complete. For some assays here: Sequences can lack the tags named with a protein.
What was measured:
[1] = target: T1, FLAG-tagged rpS5-ΔC (S. cerevisiae ribosomal protein S5 lacking the seven C-terminal amino acids) (S. cerevisiae) (UniProt P26783); assay: affinity purification with mass spectrometry; FLAG-rpS5-ΔC and associated RNPs purified on anti-FLAG M2 beads (90 min, 4°C) from strain ToY323 with ToP1101 after 2 h shut down of GAL-RPS5 in glucose; washed with A200 (200 mM KCl, 20 mM Tris-HCl pH 8.0, 5 mM MgAc) plus 0.2% Triton; tryptic peptides by nano-HPLC and MALDI-TOF/TOF
T1 sequence: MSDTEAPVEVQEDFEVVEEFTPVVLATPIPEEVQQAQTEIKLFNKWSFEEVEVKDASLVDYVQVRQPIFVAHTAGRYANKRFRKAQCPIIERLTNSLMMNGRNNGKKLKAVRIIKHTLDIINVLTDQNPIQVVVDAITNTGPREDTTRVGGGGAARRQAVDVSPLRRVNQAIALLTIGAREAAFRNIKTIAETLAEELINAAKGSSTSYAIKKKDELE

Protein sequences, listed by entry. Tags and fused reporters are not part of them.
UniProt P40160: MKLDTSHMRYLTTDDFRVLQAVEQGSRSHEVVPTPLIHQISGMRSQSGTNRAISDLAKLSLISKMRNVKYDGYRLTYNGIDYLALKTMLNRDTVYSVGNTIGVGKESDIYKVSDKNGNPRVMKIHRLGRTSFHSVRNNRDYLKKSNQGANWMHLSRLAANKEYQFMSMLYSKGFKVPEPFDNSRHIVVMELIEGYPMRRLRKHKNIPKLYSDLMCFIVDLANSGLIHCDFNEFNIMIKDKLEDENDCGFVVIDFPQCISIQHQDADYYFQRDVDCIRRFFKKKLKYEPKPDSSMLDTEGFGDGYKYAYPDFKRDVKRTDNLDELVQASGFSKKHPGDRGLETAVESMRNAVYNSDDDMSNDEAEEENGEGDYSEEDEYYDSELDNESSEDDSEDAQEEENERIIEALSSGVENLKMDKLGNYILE

[2] = target: TAP-tagged Rio2p (S. cerevisiae) (UniProt P40160); assay: affinity purification with mass spectrometry; Rio2-TAP associated SSU precursors purified on rabbit IgG magnetic beads (1 h, 4°C, buffer MB) from strain ToY1739 expressing HA-tagged full length rpS5 or rpS5-ΔC after shut down of GAL-RPS5; iTRAQ-labelled tryptic peptides compared semi-quantitatively

B1: Nob1p (protein, UniProt Q08444 1-459)
chain: MTENQTAHVRALILDATPLITQSYTHYQNYAQSFYTTPTVFQEIKDAQARKNLEIWQSLGTLKLVHPSENSIAKVSTFAKLTGDYSVLSANDLHILALTYELEIKLNNGDWRLRKKPGDALDASKADVGTDGKQKLTEDNKKEEDSESVPKKKNKRRGGKKQKAKREAREAREAENANLELESKAEEHVEEAGSKEQICNDENIKESSDLNEVFEDADDDGDWITPENLTEAIIKDSGEDTTGSLGVEASEEDRHVALNRPENQVALATGDFAVQNVALQMNLNLMNFMSGLKIKRIRNYMLRCHACFKIFPLPKDGKPKHFCASCGGQGTLLRCAVSVDSRTGNVTPHLKSNFQWNNRGNRYSVASPLSKNSQKRYGKKGHVHSKPQENVILREDQKEYEKVIKQEEWTRRHNEKILNNWIGGGSADNYISPFAITGLKQHNVRIGKGRYVNSSKRRS
Q: Which results are given for B1?
A: binding [1]: binds; binding [2]: binds
